Results are given in words; binding and its absence hold for the method and conditions named. In cells and extracts the contact can be indirect. Some binding calls cover weakened binding; strength is not graded here. Tags and fused reporters may be left off the sequences shown.
Columns and labels:
[1] = target: SFB-tagged IP6K1 (full length) (human) (UniProt Q92551); assay: pull-down; SFB-tagged bait expressed in HEK293T (HEK293) cells, pulled down from the lysate with streptavidin-sepharose beads, 2 h at 4°C (50 mM HEPES pH 7.4, 100 mM NaCl, 1 mM EDTA, 0.5% Nonidet P-40); prey endogenous or co-expressed, detected by immunoblotting
[2] = target: catalytically inactive IP6K1 (K226A), V5-tagged (human) (UniProt Q92551); assay: co-IP; C-terminally V5-tagged IP6K1 co-expressed with tagged partners in HEK293T; lysate immunoprecipitated with an anti-V5 antibody overnight at 4°C, Protein A or G-sepharose; immunoblotting for myc or HA
[3] = target: V5-tagged IP6K1 (human) (UniProt Q92551); assay: as above
[4] = target: V5-tagged IP6K1 (human) (UniProt Q92551); assay: co-IP; competition in cells: IP6K1-V5 and myc-AP3B1 co-expressed in HEK293T in the absence or presence of SFB-tagged IDR-1; anti-V5 immunoprecipitation, immunoblot for myc, densitometry (N=3)
[5] = target: HA-tagged CK2α (human) (UniProt P68400); assay: co-IP; N-terminally HA-tagged CK2α co-expressed with myc-AP3B1 and/or IP6K1-V5 in HEK293T; lysate immunoprecipitated with an anti-HA antibody; immunoblotting for V5 or myc
[6] = target: T1, HA-tagged CK2α (K68M), catalytically inactive (human) (UniProt P68400); assay: as above
T1 sequence: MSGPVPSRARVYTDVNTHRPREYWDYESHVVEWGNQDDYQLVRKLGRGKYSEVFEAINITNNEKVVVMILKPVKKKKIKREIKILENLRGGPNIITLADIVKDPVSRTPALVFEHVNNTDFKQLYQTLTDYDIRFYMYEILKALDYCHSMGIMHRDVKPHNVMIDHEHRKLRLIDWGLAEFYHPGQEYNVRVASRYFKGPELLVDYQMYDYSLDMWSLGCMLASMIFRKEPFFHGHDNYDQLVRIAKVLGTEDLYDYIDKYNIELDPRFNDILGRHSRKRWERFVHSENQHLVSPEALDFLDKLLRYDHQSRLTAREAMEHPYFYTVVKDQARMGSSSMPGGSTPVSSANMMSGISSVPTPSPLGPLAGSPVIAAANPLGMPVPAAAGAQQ

Protein sequences, listed by entry. Tags and fused reporters are not part of them. Lines headed by an entry give the natural chain unless they say otherwise; changes in a name come on top.
UniProt Q92551: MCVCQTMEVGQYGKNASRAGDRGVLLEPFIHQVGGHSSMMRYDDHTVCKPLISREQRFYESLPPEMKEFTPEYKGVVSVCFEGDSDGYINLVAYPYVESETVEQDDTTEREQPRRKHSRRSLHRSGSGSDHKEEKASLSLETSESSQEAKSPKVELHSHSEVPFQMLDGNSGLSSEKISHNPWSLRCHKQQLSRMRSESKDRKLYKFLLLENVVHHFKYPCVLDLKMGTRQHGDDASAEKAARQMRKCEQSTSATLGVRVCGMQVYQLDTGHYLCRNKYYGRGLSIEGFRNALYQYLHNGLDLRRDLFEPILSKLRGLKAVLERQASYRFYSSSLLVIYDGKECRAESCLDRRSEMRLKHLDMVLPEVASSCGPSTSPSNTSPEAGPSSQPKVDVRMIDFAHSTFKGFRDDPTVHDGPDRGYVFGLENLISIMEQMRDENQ

[7] = target: GST-tagged recombinant CK2α (human) (UniProt P68400); assay: pull-down; GST-tagged IP6K1 or CK2α purified from E. coli and immobilized on glutathione-sepharose beads, incubated with lysates of transfected HEK293T cells in 50 mM HEPES-KOH pH 7.4, 100 mM NaCl, 5 mM MgCl2, 0.3% Triton X-100, 2 h at 4°C; immunoblotting; only the target purified
[8] = target: GST-tagged recombinant IP6K1 (human) (UniProt Q92551); assay: as above

B1: endogenous NOLC1 (protein, UniProt Q14978 1-699)
chain: MADAGIRRVVPSDLYPLVLGFLRDNQLSEVANKFAKATGATQQDANASSLLDIYSFWLKSAKVPERKLQANGPVAKKAKKKASSSDSEDSSEEEEEVQGPPAKKAAVPAKRVGLPPGKAAAKASESSSSEESSDDDDEEDQKKQPVQKGVKPQAKAAKAPPKKAKSSDSDSDSSSEDEPPKNQKPKITPVTVKAQTKAPPKPARAAPKIANGKAASSSSSSSSSSSSDDSEEEKAAATPKKTVPKKQVVAKAPVKAATTPTRKSSSSEDSSSDEEEEQKKPMKNKPGPYSSVPPPSAPPPKKSLGTQPPKKAVEKQQPVESSEDSSDESDSSSEEEKKPPTKAVVSKATTKPPPAKKAAESSSDSSDSDSSEDDEAPSKPAGTTKNSSNKPAVTTKSPAVKPAAAPKQPVGGGQKLLTRKADSSSSEEESSSSEEEKTKKMVATTKPKATAKAALSLPAKQAPQGSRDSSSDSDSSSSEEEEEKTSKSAVKKKPQKVAGGAAPSKPASAKKGKAESSNSSSSDDSSEEEEEKLKGKGSPRPQAPKANGTSALTAQNGKAAKNSEEEEEEKKKAAVVVSKSGSLKKRKQNEAAKEAETPQAKKIKLQTPNTFPKRKKGEKRASSPFRRVREEEIEVDSRVADNSFDAKRGAAGDWGERANQVLKFTKGKSFRHEKTKKKRGSYRGGSISVQVNSIKFDSE
[1]
  binding: binds

B2: endogenous TCOF (protein, UniProt Q13428 1-1488)
chain: MAEARKRRELLPLIYHHLLRAGYVRAAREVKEQSGQKCFLAQPVTLLDIYTHWQQTSELGRKRKAEEDAALQAKKTRVSDPISTSESSEEEEEAEAETAKATPRLASTNSSVLGADLPSSMKEKAKAETEKAGKTGNSMPHPATGKTVANLLSGKSPRKSAEPSANTTLVSETEEEGSVPAFGAAAKPGMVSAGQADSSSEDTSSSSDETDVEGKPSVKPAQVKASSVSTKESPARKAAPAPGKVGDVTPQVKGGALPPAKRAKKPEEESESSEEGSESEEEAPAGTRSQVKASEKILQVRAASAPAKGTPGKGATPAPPGKAGAVASQTKAGKPEEDSESSSEESSDSEEETPAAKALLQAKASGKTSQVGAASAPAKESPRKGAAPAPPGKTGPAVAKAQAGKREEDSQSSSEESDSEEEAPAQAKPSGKAPQVRAASAPAKESPRKGAAPAPPRKTGPAAAQVQVGKQEEDSRSSSEESDSDREALAAMNAAQVKPLGKSPQVKPASTMGMGPLGKGAGPVPPGKVGPATPSAQVGKWEEDSESSSEESSDSSDGEVPTAVAPAQEKSLGNILQAKPTSSPAKGPPQKAGPVAVQVKAEKPMDNSESSEESSDSADSEEAPAAMTAAQAKPALKIPQTKACPKKTNTTASAKVAPVRVGTQAPRKAGTATSPAGSSPAVAGGTQRPAEDSSSSEESDSEEEKTGLAVTVGQAKSVGKGLQVKAASVPVKGSLGQGTAPVLPGKTGPTVTQVKAEKQEDSESSEEESDSEEAAASPAQVKTSVKKTQAKANPAAARAPSAKGTISAPGKVVTAAAQAKQRSPSKVKPPVRNPQNSTVLARGPASVPSVGKAVATAAQAQTGPEEDSGSSEEESDSEEEAETLAQVKPSGKTHQIRAALAPAKESPRKGAAPTPPGKTGPSAAQAGKQDDSGSSSEESDSDGEAPAAVTSAQVIKPPLIFVDPNRSPAGPAATPAQAQAASTPRKARASESTARSSSSESEDEDVIPATQCLTPGIRTNVVTMPTAHPRIAPKASMAGASSSKESSRISDGKKQEGPATQVSKKNPASLPLTQAALKVLAQKASEAQPPVARTQPSSGVDSAVGTLPATSPQSTSVQAKGTNKLRKPKLPEVQQATKAPESSDDSEDSSDSSSGSEEDGEGPQGAKSAHTLGPTPSRTETLVEETAAESSEDDVVAPSQSLLSGYMTPGLTPANSQASKATPKLDSSPSVSSTLAAKDDPDGKQEAKPQQAAGMLSPKTGGKEAASGTTPQKSRKPKKGAGNPQASTLALQSNITQCLLGQPWPLNEAQVQASVVKVLTELLEQERKKVVDTTKESSRKGWESRKRKLSGDQPAARTPRSKKKKKLGAGEGGEASVSPEKTSTTSKGKAKRDKASGDVKEKKGKGSLGSQGAKDEPEEELQKGMGTVEGGDQSNPKSKKEKKKSDKRKKDKEKKEKKKKAKKASTKDSESPSQKKKKKKKKTAEQTV
[1]
  binding: binds

B3: endogenous AP3B1, the β subunit of the AP3 adaptor protein complex (protein, UniProt O00203 1-1094)
chain: MSSNSFPYNEQSGGGEATELGQEATSTISPSGAFGLFSSDLKKNEDLKQMLESNKDSAKLDAMKRIVGMIAKGKNASELFPAVVKNVASKNIEIKKLVYVYLVRYAEEQQDLALLSISTFQRALKDPNQLIRASALRVLSSIRVPIIVPIMMLAIKEASADLSPYVRKNAAHAIQKLYSLDPEQKEMLIEVIEKLLKDKSTLVAGSVVMAFEEVCPDRIDLIHKNYRKLCNLLVDVEEWGQVVIIHMLTRYARTQFVSPWKEGDELEDNGKNFYESDDDQKEKTDKKKKPYTMDPDHRLLIRNTKPLLQSRNAAVVMAVAQLYWHISPKSEAGIISKSLVRLLRSNREVQYIVLQNIATMSIQRKGMFEPYLKSFYVRSTDPTMIKTLKLEILTNLANEANISTLLREFQTYVKSQDKQFAAATIQTIGRCATNILEVTDTCLNGLVCLLSNRDEIVVAESVVVIKKLLQMQPAQHGEIIKHMAKLLDSITVPVARASILWLIGENCERVPKIAPDVLRKMAKSFTSEDDLVKLQILNLGAKLYLTNSKQTKLLTQYILNLGKYDQNYDIRDRTRFIRQLIVPNVKSGALSKYAKKIFLAQKPAPLLESPFKDRDHFQLGTLSHTLNIKATGYLELSNWPEVAPDPSVRNVEVIELAKEWTPAGKAKQENSAKKFYSESEEEEDSSDSSSDSESESGSESGEQGESGEEGDSNEDSSEDSSSEQDSESGRESGLENKRTAKRNSKAKGKSDSEDGEKENEKSKTSDSSNDESSSIEDSSSDSESESEPESESESRRVTKEKEKKTKQDRTPLTKDVSLLDLDDFNPVSTPVALPTPALSPSLMADLEGLHLSTSSSVISVSTPAFVPTKTHVLLHRMSGKGLAAHYFFPRQPCIFGDKMVSIQITLNNTTDRKIENIHIGEKKLPIGMKMHVFNPIDSLEPEGSITVSMGIDFCDSTQTASFQLCTKDDCFNVNIQPPVGELLLPVAMSEKDFKKEQGVLTGMNETSAVIIAAPQNFTPSVIFQKVVNVANVGAVPSGQDNIHRFAAKTVHSGSLMLVTVELKEGSTAQLIINTEKTVIGSVLLRELKPVLSQG
[1]
  binding: binds

B4: myc epitope-tagged AP3B1 (protein, UniProt O00203-1 1-1094)
chain: B3 chain
[2]
  binding: binds
[3]
  binding: binds
[4]
  binding: binds
[1]
  binding: binds
[5]
  binding: binds
[6]
  binding: binds
[7]
  binding: binds
[8]
  binding: binds

— article PMC11461180, “Interaction with IP6K1 supports pyrophosphorylation of substrate proteins by the inositol pyrophosphate 5-InsP7” (Bioscience Reports, 2024)
